Earlier results, collected in patent publication US11639483B2, “Macrocyclic musk lactones and uses thereof” (PHYTO TECH CORP., priority 2021, dated 2023).

Conditions: biodegradability; cited from earlier work

SMILES | % DEG IN READY TEST OECD 301B [%]
CC1COCc2cc3c(cc21)C(C)(C)C(C)C3(C)C (stereo not drawn) [Galaxolide, galaxolide] | 0
Cc1c([N+](=O)[O-])c(C)c([N+](=O)[O-])c(C(C)(C)C)c1[N+](=O)[O-] [MUSK XYLENE] | 2
C[C@@H]1CCCCCCCCCCCCC(=O)C1 [MUSCONE, Muscone] | 80
